These are yes or no findings as the source states them, for the method shown. In cells and extracts the contact can be indirect. Some results given as binding are weak or reduced against the parent protein; the word gives no strength.
Target: CREB-binding protein (CBP) (mouse (endogenous in RAW264.7)) (UniProt P45481)
Test: co-IP; RAW264.7 lysates (IP lysis buffer: 10 mM Tris pH 7.4, 25 mM NaCl2, 5 mM EDTA, 0.1% NP40, 1% protease inhibitor), pre-cleared, mixed with anti-CBP antibody or control IgG for 1 h at 4°C, captured on Protein A magnetic beads, blotted for p-NF-κB or CREB (ser133); cells after LPS modeling, with or without XBJ, transfected with lentiviral vector overexpressing GSK-3β or negative control vector

The chains behind the UniProt entries cited, without tags or fusion partners. Where a name states a change or a piece, a line headed by the entry shows the natural chain unless it says otherwise. A line that says so, or that is headed by a name, gives the form on record, which may keep a tag or linker.
UniProt P45481: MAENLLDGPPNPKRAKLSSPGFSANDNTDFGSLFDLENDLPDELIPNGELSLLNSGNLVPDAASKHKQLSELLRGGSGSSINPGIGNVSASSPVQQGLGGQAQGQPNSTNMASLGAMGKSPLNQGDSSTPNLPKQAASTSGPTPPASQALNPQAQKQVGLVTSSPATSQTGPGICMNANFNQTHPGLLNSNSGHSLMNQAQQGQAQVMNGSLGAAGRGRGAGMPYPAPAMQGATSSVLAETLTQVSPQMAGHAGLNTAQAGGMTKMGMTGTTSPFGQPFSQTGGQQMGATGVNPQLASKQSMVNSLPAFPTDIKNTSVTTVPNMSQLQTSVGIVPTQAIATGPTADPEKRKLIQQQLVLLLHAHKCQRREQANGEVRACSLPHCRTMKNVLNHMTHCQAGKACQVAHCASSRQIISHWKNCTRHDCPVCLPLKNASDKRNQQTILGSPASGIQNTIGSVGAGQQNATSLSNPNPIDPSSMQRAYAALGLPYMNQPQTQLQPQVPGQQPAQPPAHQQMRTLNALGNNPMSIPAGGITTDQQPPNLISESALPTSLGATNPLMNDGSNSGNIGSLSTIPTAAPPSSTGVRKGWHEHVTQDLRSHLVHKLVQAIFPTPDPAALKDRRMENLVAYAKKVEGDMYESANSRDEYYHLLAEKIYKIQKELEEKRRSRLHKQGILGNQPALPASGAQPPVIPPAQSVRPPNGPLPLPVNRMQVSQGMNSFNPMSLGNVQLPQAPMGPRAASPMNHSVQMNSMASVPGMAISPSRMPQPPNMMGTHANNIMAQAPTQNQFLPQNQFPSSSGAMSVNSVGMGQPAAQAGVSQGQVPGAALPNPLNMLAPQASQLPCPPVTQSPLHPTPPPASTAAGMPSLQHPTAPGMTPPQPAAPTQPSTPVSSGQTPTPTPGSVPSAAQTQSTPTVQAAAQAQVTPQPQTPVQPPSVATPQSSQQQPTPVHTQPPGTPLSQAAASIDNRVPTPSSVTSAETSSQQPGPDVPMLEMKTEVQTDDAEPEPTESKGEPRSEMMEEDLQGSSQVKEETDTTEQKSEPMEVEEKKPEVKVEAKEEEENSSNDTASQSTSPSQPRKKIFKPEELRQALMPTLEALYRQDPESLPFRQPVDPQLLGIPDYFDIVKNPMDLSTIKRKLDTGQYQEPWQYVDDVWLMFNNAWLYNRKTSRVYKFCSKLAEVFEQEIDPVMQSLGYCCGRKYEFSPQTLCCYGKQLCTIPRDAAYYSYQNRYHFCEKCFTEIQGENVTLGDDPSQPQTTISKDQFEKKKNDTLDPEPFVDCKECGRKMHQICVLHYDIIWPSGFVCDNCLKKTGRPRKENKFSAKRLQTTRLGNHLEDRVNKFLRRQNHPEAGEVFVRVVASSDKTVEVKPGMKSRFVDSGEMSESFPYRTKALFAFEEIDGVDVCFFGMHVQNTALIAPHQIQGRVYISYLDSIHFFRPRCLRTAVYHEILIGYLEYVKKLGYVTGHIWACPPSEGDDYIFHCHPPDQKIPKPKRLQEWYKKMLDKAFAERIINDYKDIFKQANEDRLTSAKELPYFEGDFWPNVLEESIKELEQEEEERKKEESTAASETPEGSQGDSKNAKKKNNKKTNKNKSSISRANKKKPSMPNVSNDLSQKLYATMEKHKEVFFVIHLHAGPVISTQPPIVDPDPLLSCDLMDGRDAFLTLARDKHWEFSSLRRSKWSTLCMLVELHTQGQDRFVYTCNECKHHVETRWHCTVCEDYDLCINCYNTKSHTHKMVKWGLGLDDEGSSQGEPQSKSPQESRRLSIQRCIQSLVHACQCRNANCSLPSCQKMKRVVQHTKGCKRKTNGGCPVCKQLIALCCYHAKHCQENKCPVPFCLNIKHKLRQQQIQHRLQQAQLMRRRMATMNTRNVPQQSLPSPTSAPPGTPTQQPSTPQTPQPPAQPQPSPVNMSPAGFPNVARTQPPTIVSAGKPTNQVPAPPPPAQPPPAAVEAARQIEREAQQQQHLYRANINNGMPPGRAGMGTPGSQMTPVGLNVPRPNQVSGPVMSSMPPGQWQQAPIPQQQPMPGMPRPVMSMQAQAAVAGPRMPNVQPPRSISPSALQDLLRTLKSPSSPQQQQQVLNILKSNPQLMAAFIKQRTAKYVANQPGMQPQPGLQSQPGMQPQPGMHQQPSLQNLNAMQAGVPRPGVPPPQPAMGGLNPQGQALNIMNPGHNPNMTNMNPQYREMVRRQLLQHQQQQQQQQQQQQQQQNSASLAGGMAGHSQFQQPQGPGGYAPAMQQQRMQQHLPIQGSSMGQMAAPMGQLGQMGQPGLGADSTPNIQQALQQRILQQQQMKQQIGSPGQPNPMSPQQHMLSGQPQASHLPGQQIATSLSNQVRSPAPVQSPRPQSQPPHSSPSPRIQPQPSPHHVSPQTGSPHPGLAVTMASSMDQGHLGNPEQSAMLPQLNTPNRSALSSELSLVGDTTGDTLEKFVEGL
phosphorylated cAMP-response element-binding protein, CREB (Ser133) (Q01147-1, form named): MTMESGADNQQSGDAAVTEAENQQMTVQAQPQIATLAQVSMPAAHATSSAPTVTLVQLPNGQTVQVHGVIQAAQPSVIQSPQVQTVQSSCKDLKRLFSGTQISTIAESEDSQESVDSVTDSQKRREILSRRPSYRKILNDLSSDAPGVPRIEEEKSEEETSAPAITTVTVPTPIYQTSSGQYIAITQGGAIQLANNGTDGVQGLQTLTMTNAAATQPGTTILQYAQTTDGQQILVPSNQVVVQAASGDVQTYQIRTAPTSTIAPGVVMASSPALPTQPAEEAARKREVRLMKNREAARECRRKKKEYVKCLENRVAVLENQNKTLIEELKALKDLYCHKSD

“phosphorylated cAMP-response element-binding protein, CREB (Ser133) (from UniProt Q01147-1 1-341)” was tested, and the binding was “binds”.

From paper PMC8120308
